Results from PubChem BioAssay (EPA / NIEHS).
Where “and” joins values, the source holds several entries; their conditions need not be identical. Identical values can stand only once. Inconclusive results, whose numbers are uncertain, are shown with a selection of clear calls. For some of these results: Where the call is inconclusive, the potency comes from a doubtful curve fit. Calls of active or inactive are those of the source. Rule for the calls, unless noted: active = hit-call score of the fitted dose curve at least 0.9, where 1 is the maximum; inconclusive = response in the unintended direction; inactive = score below 0.9.

Protein sequences, listed by entry. Tags and fused reporters are not part of them. Lines headed by an entry give the natural chain unless they say otherwise; changes in a name come on top.
UniProt P33261, whole entry, looked up: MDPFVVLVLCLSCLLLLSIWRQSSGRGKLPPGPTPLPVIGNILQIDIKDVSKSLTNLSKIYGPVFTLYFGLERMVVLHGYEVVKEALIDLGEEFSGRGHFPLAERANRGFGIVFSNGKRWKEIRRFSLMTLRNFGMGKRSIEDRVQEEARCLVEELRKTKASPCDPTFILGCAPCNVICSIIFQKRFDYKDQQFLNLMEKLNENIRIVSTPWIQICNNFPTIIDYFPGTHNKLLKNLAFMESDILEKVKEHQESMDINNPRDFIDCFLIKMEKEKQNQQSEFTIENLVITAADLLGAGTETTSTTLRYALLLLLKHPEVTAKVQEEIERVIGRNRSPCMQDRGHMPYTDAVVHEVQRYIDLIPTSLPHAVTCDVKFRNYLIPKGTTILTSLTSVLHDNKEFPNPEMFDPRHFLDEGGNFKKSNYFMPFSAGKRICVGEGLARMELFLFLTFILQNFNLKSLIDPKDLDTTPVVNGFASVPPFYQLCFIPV
UniProt P08684, whole entry, looked up: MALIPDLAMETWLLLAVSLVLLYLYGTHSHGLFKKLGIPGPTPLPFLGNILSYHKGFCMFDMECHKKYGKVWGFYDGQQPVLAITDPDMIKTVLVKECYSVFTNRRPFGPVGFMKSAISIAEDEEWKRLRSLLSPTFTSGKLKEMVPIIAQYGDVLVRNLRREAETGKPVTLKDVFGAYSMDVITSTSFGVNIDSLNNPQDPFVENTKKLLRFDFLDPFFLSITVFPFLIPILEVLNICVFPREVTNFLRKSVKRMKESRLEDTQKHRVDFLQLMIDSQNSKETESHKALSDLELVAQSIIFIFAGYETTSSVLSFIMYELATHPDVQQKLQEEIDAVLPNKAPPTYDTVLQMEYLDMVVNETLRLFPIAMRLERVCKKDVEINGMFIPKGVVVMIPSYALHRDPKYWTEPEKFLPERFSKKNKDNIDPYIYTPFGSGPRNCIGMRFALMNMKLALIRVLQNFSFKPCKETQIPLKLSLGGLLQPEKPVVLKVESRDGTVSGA
UniProt P04406: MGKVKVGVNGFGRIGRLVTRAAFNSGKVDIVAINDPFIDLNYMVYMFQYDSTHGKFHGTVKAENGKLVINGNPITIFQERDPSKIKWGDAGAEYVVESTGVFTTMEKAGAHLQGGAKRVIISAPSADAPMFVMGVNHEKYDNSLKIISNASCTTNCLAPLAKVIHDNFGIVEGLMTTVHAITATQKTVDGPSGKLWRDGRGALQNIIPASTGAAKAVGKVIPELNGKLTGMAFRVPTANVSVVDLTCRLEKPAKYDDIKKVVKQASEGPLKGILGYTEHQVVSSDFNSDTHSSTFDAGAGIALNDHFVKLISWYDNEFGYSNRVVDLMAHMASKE
UniProt P20813: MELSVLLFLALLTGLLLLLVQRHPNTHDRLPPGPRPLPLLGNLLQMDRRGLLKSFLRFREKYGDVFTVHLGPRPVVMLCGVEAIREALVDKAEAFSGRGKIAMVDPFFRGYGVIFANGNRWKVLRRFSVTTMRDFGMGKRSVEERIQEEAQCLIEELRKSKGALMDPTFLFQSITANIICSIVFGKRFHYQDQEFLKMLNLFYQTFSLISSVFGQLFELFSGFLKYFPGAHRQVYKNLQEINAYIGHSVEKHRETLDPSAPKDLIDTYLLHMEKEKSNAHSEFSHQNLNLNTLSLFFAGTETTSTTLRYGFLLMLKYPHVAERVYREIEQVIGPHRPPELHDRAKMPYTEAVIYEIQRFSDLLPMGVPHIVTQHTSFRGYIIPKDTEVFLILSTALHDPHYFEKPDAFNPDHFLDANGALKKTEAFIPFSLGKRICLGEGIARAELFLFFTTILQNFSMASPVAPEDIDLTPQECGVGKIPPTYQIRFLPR

Columns and labels:
[1] = read-out: xenobiotic metabolism (CYP1A1), CYP1A1 (gene 1543); assay: CLD_CYP1A1_24hr: CellzDirect (CLD) Gene Expression Assay for xenobiotic metabolism (CYP1A1) at 24 hours (AID 2283673)
Procedure: CLD_24hr is a cell-based, multiplexed-readout assay that uses hepatocyte, a human liver primary cell, with measurements taken at 24 hours after chemical dosing in a 96-well plate.CLD_CYP1A1_24hr is one of 16 assay component(s) measured or calculated from the CLD_24hr assay. It is designed to make measurements of mRNA induction, a form of inducible reporter, as detected with chemiluminescence signals by Quantitative Nuclease Protection Assay (qNPA) technology.Data from the assay component CLD_CYP1A1_24hr was analyzed at the endpoint, CLD_CYP1A1_24hr, in the positive analysis fitting direction relative to DMSO as the negative control and baseline of activity. Using a type of inducible reporter, gain-of-signal activity can be used to understand changes in the reporter gene as they relate to the gene CYP1A1. Furthermore, this assay endpoint can be referred to as a primary readout. To generalize the intended target to other relatable targets, this assay endpoint is annotated to the cyp intended target family, where subfamily is xenobiotic metabolism.
Human hepatocyte cultures were treated daily for two consecutive days with fresh dosing solutions containing appropriate concentrations of the 320 ToxCast chemicals (chemical identities were blinded to CellzDirect and other ToxCast collaborators), vehicle control (0.2% DMSO), and positive control inducers as summarized in Table 1. Due to the large number of treatment groups and chemicals examined, the ToxCast chemicals were divided into two groups (spanning two independent cultures of hepatocytes from separate donor preparations (Hu778: ToxCast plates 1 and 2; Hu776: ToxCast plates 3 and 4). Each preparation of human hepatocyte cultures was treated with respective vehicle control, medium only control, set of six positive controls/reference chemicals for the five hepatic receptor pathways, and a subset of eight of the ToxCast chemicals (indoxacarb, pyrithiobac-sodium, norflurazon, cyhalofop-butyl, methomyl, thiram, acetochlor, and propiconazole). These replicate data, coupled with internal replicates designed within the blinded ToxCast chemical library, provided additional data to evaluate interindividual differences between hepatocyte preparations and their potential impact on chemical profiles.Cell morphology and integrity were evaluated using phase-contrast microscopy as an indicator of hepatocyte cell health (Tyson & Green, 1987). Cultures for each treatment group (i.e., media, vehicle [0.2% DMSO], positive control inducers [multiple concentrations], and the ToxCast chemicals [multiple concentrations]) were observed and cell morphology was assessed relative to vehicle control cultures at each harvest time point (0, 6, 24, or 48 h). […] Images were evaluated at the conclusion of the study to assess changes in cell integrity and account for the effects of chemical exposure on uncharacteristic changes in concentration-dependent gene expression profiles. The results from these determinations of apparent cytotoxicity were annotated (yes/no) alongside the corresponding qNPA data for reference.At the conclusion of each treatment period, hepatocyte cultures (96-well) were washed with 1 volume of HBSS, lysed by addition of 25 ul ArrayPlate lysis buffer (HTG, Tucson, AZ), and 70 ul/well of Denaturation Oil, denatured by incubation at 95C for 10 min, and frozen at approximately -70C until analysis by nuclease protection assay (qNPA) (Roberts et al., 2007). For qNPA analysis, cell lysates were thawed at 50C for approximately 30 min, qNPA probes were added, and samples were incubated at 95C for 10 min to begin the detection process by denaturing the target RNA, dissociating the duplexes and secondary structure hybridization. At the conclusion of the hybridization period, S1 nuclease reagent was added to each sample to digest all nonprotected nucleotides at 50C for 60-90 min. […]

[2] = read-out: Cytochrome P450 2C19 (Homo sapiens) (UniProt P33261); assay: CLD_CYP2C19_6hr: CellzDirect (CLD) Gene Expression Assay for xenobiotic metabolism (CYP2C19) at 6 hours (AID 2283678)
Method in brief: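 CYP2C19 transcript induction was quantified by quantitative nuclease protection assay with chemiluminescent read-out, 6 h after dosing. Cells were primary human hepatocytes from two donor preparations, given fresh dosing solutions daily in 0.2% DMSO vehicle. Activity was relative to DMSO.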

[3] = read-out: Cytochrome P450 3A4 (Homo sapiens) (UniProt P08684); assay: CLD_CYP3A4_6hr: CellzDirect (CLD) Gene Expression Assay for xenobiotic metabolism (CYP3A4) at 6 hours (AID 2283680)
Method in brief: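 CYP3A4 mRNA induction, 6 h after dosing of cultured primary human hepatocytes from two donors, read by quantitative nuclease protection (qNPA, chemiluminescence). Vehicle 0.2% DMSO as baseline; morphology-based cytotoxicity annotated yes/no.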

[4] = read-out: Glyceraldehyde-3-phosphate dehydrogenase (Homo sapiens) (UniProt P04406); assay: CLD_GAPDH_6hr: CellzDirect (CLD) Gene Expression Assay for Baseline Control (Glyceraldehyde 3-phosphate dehydrogenase) at 6 hours (AID 2283681);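 for outcome: active means increased signal relative to DMSO vehicle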
Method in brief: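 GAPDH baseline-control readout from qNPA (S1 nuclease digestion, probe hybridization, chemiluminescence) in lysates of cultured human hepatocytes harvested 6 h post-dosing. Chemicals tested at multiple concentrations versus 0.2% DMSO vehicle; microscopy-based cytotoxicity flagged yes/no.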

[5] = read-out: HMG-CoA synthase (HMGCS2), HMGCS2 (gene 3158); assay: CLD_HMGCS2_6hr: CellzDirect (CLD) Gene Expression Assay for HMG-CoA synthase (HMGCS2) at 6 hours (AID 2283682);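 note: actives raise HMGCS2 transcript above the 0.2% DMSO vehicle baseline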
Method in brief: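 HMGCS2 transcript induction read by quantitative nuclease protection with chemiluminescence, 6 h after dosing of primary human hepatocytes. Baseline was 0.2% DMSO vehicle; phase-contrast morphology gave a yes/no cytotoxicity annotation.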

[6] = read-out: Cytochrome P450 2B6 (Homo sapiens) (UniProt P20813); assay: CLD_CYP2B6_6hr: CellzDirect (CLD) Gene Expression Assay for xenobiotic metabolism (CYP2B6) at 6 hours (AID 2283677);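 note: actives raise CYP2B6 transcript above DMSO baseline so AC50 marks an inducer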
Method in brief: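 CYP2B6 transcript levels, read by chemiluminescent qNPA, were fitted for increase versus DMSO baseline; cultured human liver hepatocytes from two donor preparations were harvested 6 h after exposure to test chemicals at multiple concentrations.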

[7] = CLD_ACTIN_6hr: CellzDirect (CLD) Gene Expression Assay for Baseline Control (Actin) at 6 hours (AID 2283676);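 for outcome: active means increased actin mRNA relative to DMSO vehicle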
Method in brief: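 Baseline actin transcript level measured by qNPA (S1 nuclease protection, chemiluminescence) in human hepatocyte cultures 6 h after chemical exposure; 0.2% DMSO vehicle as reference, cytotoxicity noted from morphology.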

[8] = read-out: xenobiotic metabolism (CYP1A2), CYP1A2 (gene 1544); assay: CLD_CYP1A2_24hr: CellzDirect (CLD) Gene Expression Assay for xenobiotic metabolism (CYP1A2) at 24 hours (AID 2283683)
Procedure: CLD_24hr is a cell-based, multiplexed-readout assay that uses hepatocyte, a human liver primary cell, with measurements taken at 24 hours after chemical dosing in a 96-well plate.CLD_CYP1A2_24hr is one of 16 assay component(s) measured or calculated from the CLD_24hr assay. It is designed to make measurements of mRNA induction, a form of inducible reporter, as detected with chemiluminescence signals by Quantitative Nuclease Protection Assay (qNPA) technology.Data from the assay component CLD_CYP1A2_24hr was analyzed at the endpoint, CLD_CYP1A2_24hr, in the positive analysis fitting direction relative to DMSO as the negative control and baseline of activity. […] Furthermore, this assay endpoint can be referred to as a primary readout. […]
Human hepatocyte cultures were treated daily for two consecutive days with fresh dosing solutions containing appropriate concentrations of the 320 ToxCast chemicals (chemical identities were blinded to CellzDirect and other ToxCast collaborators), vehicle control (0.2% DMSO), and positive control inducers as summarized in Table 1. […] Cultures for each treatment group (i.e., media, vehicle [0.2% DMSO], positive control inducers [multiple concentrations], and the ToxCast chemicals [multiple concentrations]) were observed and cell morphology was assessed relative to vehicle control cultures at each harvest time point (0, 6, 24, or 48 h). […]

[9] = read-out: glucuronosyltransferase (UGT1A1), UGT1A1 (gene 54658); assay: CLD_UGT1A1_6hr: CellzDirect (CLD) Gene Expression Assay for glucuronosyltransferase (UGT1A1) at 6 hours (AID 2283672)
Method in brief: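 UGT1A1 mRNA induction, read by quantitative nuclease protection assay, 6 h after dosing primary human hepatocytes (two donors, 0.2% DMSO vehicle). Gain of signal fitted relative to vehicle.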

[10] = read-out: ABC Transporter (ABCB11), ABCB11 (gene 8647); assay: CLD_ABCB11_24hr: CellzDirect (CLD) Gene Expression Assay for ABC Transporter (ABCB11) at 24 hours (AID 2283674; active = hit-call score of the fitted dose curve at least 0.9, where 1 is the maximum; inactive = score below 0.9)
Method in brief: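 ABCB11 transcript was quantified by qNPA chemiluminescence in cultured human liver hepatocytes 24 hours after dosing. Fresh dosing solutions were applied on consecutive days, against a 0.2% DMSO vehicle. Cytotoxicity was noted by phase-contrast morphology.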

Structure (SMILES): CCSC(=O)N(CC(C)C)CC(C)C
- AC50 [1]: inconclusive: 20 µM
- AC50 [2]: inconclusive: 2.65 µM
- AC50 [3]: inconclusive: 0.000402 µM
- outcome [4]: inactive
- AC50 [5]: inconclusive: 20000 nM

Structure (SMILES): CCN(CC)C(=O)c1cccc(C)c1
- AC50 [1]: inconclusive: 20 µM
- AC50 [6]: active: 2.38 µM
- AC50 [2]: inconclusive: 20 µM
- AC50 [4]: inconclusive: 20 µM

Structure (SMILES): COC(=O)CSc1cc(N=c2sc(=O)n3n2CCCC3)c(F)cc1Cl
- AC50 [7]: inconclusive: 20 µM
- AC50 [3]: active: 1.3 µM
- AC50 [5]: inconclusive: 3960 nM
- AC50 [8]: inconclusive: 20 µM

Structure (SMILES): O=C(Nc1ccc([N+](=O)[O-])cc1Cl)c1cc(Cl)ccc1O
- AC50 [9]: inconclusive: 5.95 µM
- AC50 [6]: inconclusive: 20 µM
- AC50 [2]: inconclusive: 2.78 µM
- AC50 [5]: inconclusive: 0.355 nM

Structure (SMILES): COC(=O)c1ccc(I)cc1S(=O)(=O)NC(=O)Nc1nc(C)nc(OC)n1
- outcome [10]: inactive
- outcome [2]: inactive
- outcome [5]: inactive

Structure (SMILES): COC(=O)c1ccccc1S(=O)(=O)NC(=O)Nc1nc(OC(F)F)cc(OC(F)F)n1
- outcome [6]: inactive
- AC50 [3]: inconclusive: 1.89 µM
- AC50 [5]: inconclusive: 0.995 nM

Structure (SMILES): COC(=O)c1ccc(CNS(C)(=O)=O)cc1S(=O)(=O)NC(=O)Nc1nc(OC)cc(OC)n1
- outcome [1]: inactive
- outcome [10]: inactive
- AC50 [3]: inconclusive: 20 µM
- AC50 [5]: inconclusive: 6.48 nM

Structure (SMILES): OB(O)O
- AC50 [1]: inconclusive: 0.157 µM
- outcome [10]: inactive
- AC50 [7]: inconclusive: 20 µM
- AC50 [6]: inconclusive: 20 µM
- outcome [2]: inactive
- AC50 [3]: inconclusive: 20 µM
- AC50 [5]: inconclusive: 20000 nM

Structure (SMILES): CCNc1nc(N)nc(Cl)n1
- AC50 [7]: inconclusive: 20 µM
- AC50 [6]: inconclusive: 0.00409 µM
- AC50 [2]: inconclusive: 3.97 µM
- AC50 [5]: inconclusive: 0.4 nM

Structure (SMILES): COC(=O)c1c(Cl)nn(C)c1S(=O)(=O)NC(=O)Nc1nc(OC)cc(OC)n1
- outcome [6]: inactive
- AC50 [2]: inconclusive: 20 µM

Structure (SMILES): CCCCC(CC)CN1C(=O)C2C3C=CC(C3)C2C1=O (configuration not stated)
- AC50 [2]: inconclusive: 20 µM
- AC50 [4]: inconclusive: 20 µM
- AC50 [5]: inconclusive: 3.99 nM

Structure (SMILES): CCN(Cc1c(F)cccc1Cl)c1c([N+](=O)[O-])cc(C(F)(F)F)cc1[N+](=O)[O-]
- outcome [9]: inactive
- AC50 [7]: inconclusive: 0.29 µM
- AC50 [2]: inconclusive: 4.98 µM
- AC50 [3]: active: 1.9 µM
- AC50 [4]: inconclusive: 7.37 µM
- AC50 [5]: inconclusive: 20000 nM

Structure (SMILES): C=CCOC(Cn1ccnc1)c1ccc(Cl)cc1Cl (configuration not stated)
- outcome [7]: inactive
- AC50 [2]: inconclusive: 3.97 µM

Structure (SMILES): CCOC(=O)C(C)Oc1ccc(Oc2nc3ccc(Cl)cc3o2)cc1 (configuration not stated)
- AC50 [2]: inconclusive: 0.147 µM
- AC50 [3]: inconclusive: 20 µM

Structure (SMILES): CCCN(CCC)C(=O)SCC
- AC50 [1]: inconclusive: 20 µM
- outcome [10]: inactive
- outcome [7]: inactive
- AC50 [2]: inconclusive: 0.0477 µM
- outcome [2]: inactive
- AC50 [5]: inconclusive: 3.33 nM and inconclusive: 20 µM

Structure (SMILES): CCC(C)OC(=O)N1CCCCC1CCO (configuration not stated)
- AC50 [1]: inconclusive: 20 µM
- outcome [10]: inactive
- outcome [6]: inactive
- AC50 [3]: inconclusive: 1.88 µM

Structure (SMILES): C#CCOC(=O)[C@@H](C)Oc1ccc(Oc2ncc(Cl)cc2F)cc1
- AC50 [1]: inconclusive: 3.97 µM
- outcome [10]: inactive
- outcome [7]: inactive
- AC50 [3]: inconclusive: 1.88 µM
